Experimental data taken from PubChem BioAssay AID2685 (National Center for Advancing Translational Sciences (NCATS), 2010).
The list shows a part of the results. These are further read-outs of the screen, such as a control signal, another cell line or another target. No call is given for them. Compounds called inactive in the main read-out are mostly missing here. The note in brackets gives the kind of curve behind each potency; many fits are weak.

Assay: qHTS Assay for Lipid Storage Modulators in Drosophila S3 Cells;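 for cell number change: cells counted by Cell Tracker Red CMTPX staining in the red channel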
Conditions: BODIPY lipid droplet fluorescence, 18-24 h; for cell number change: measured here: cell count max response, cells fed with added oleic acid
Method in brief: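 Drosophila S3 cells got compounds at several concentrations plus oleic acid (400 uM solution). Laser-scanning cytometry with 488 nm excitation read lipid droplets at 500-530 nm and cells at 575-640 nm. Percent activity was relative to 20 uM Triacsin C.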

[1] = measured here: cell number channel AC50, cells fed with added oleic acid
[2] = measured here: lipid fluorescence (Fed channel) AC50, cells fed with added oleic acid

Structure (SMILES)	cell number change [%]	AC50 [1]	AC50 [2]
CCOC(=O)c1ccc(S(=O)(=O)Nc2ccc(N3CCOCC3)cc2)cc1	-34.1	32.6 µM [falling, single point]	6.51 µM [rising, single point]
CC1CCN(S(=O)(=O)c2cccc(C(=O)NCC3CCCO3)c2)CC1 (configuration not stated)	8.75	–	2.31 µM [rising, single point]
CN1c2ccccc2C(C)(C)C12CC(CCl)=NO2 (configuration not stated)	4.27	–	8.2 µM [falling, partial curve]
COc1ccccc1N1C(=O)CC(N(O)c2ccccc2)C1=O (configuration not stated)	-48.5	5.8 µM [falling, full curve]	6.51 µM [falling, partial curve]
COc1ccc2nc(C)c(C(=O)OCCN(C)C)cc2c1	-2.23	–	6.51 µM [rising, single point]
CCOC(=O)C1CCN(C(=O)C2CCCN(S(=O)(=O)c3ccc(OC)c(Cl)c3)C2)CC1 (configuration not stated)	-6.53	–	–
COc1ccc(CNC(=O)c2ccccc2NS(C)(=O)=O)cc1	-46.3	–	–
Cc1ccc2nc(SCC(=O)N3CCCCC3)nc(=O)n2c1	-17.7	0.184 µM [falling, full curve, poor fit]	0.164 µM [falling, full curve, poor fit]
Cc1ccc(NC(=O)N[C@@H](CC(C)C)C(=O)O)c(C)c1	-28.4	2.59 µM [falling, full curve, poor fit]	–
CCN(CC)S(=O)(=O)c1cc(C(=O)n2cccn2)c(Cl)cc1Cl	–	–	25.9 µM [falling, single point]
O=C(Nc1ccccc1F)c1ccc(-c2cccc([N+](=O)[O-])c2)o1	-26.4	–	20.6 µM [falling, single point]
Cc1nc(SCC(=O)c2cccs2)c2oc3ccccc3c2n1	23.8	2.06 µM [rising, full curve, poor fit]	7.31 µM [rising, partial curve]
CC(=O)Nc1ccc(NC(=O)Cn2c(-c3ccc(F)cc3)cnc2SCC(=O)Nc2c(C)cccc2C)cc1	124	25.9 µM [rising, partial curve]	29.1 µM [rising, single point]
CC(=O)SCCC(=O)Nc1ccccc1	-8.31	–	0.13 µM [falling, full curve, poor fit]
O=C(CCc1ccc(O)cc1)c1c(O)cc(O)cc1O	-25	–	10.3 µM [falling, partial curve]
CN(c1ccc(C(=O)Nc2ccc(CC#N)cc2)cc1)S(C)(=O)=O	21.3	–	6.51 µM [falling, single point]
COc1ccc(S(=O)(=O)NCCN2CCOCC2)cc1[N+](=O)[O-]	11.3	–	29.1 µM [rising, single point]
O=C(OCc1nnc(-c2ccccc2)o1)c1cccc(-n2cnnn2)c1	-9.34	–	2.06 µM [falling, single point]
Cc1cc(C)n(CCOc2ccc(Cl)cc2Cl)n1	11.3	–	5.8 µM [falling, single point]

Structure (SMILES)	cell number change [%]	AC50 [1]	AC50 [2]
N/C(=N\OC(=O)c1cccs1)c1ccccc1	7.94	–	25.9 µM [rising, single point]
CCCc1nc2oc3c(NCCOCCO)ncnc3c2c2c1COC(C)(C)C2	37.2	29.1 µM [rising, single point]	–
Cc1ccc(S(=O)(=O)NCc2ccc(C(=O)N3CCN(c4ccc([N+](=O)[O-])cc4)CC3)cc2)cc1	-21.2	–	29.1 µM [falling, partial curve, poor fit]
Nc1ccc(N=Nc2ccccc2)c2cccnc12	-58.2	20.6 µM [falling, partial curve, poor fit]	9.2 µM [falling, partial curve]
O=C(Nc1ccc(N=Nc2ccccc2)c(NC(=O)C2CCCO2)c1)C1CCCO1 (configuration not stated)	-39.7	29.1 µM [falling, single point]	–
CCOC(=O)C1=C(C)N=c2s/c(=C\c3ccc(OCC(=O)O)cc3)c(=O)n2C1c1ccc(Cl)cc1 (configuration not stated)	47	32.6 µM [rising, single point]	–
Cc1nc2cc(NS(=O)(=O)c3ccccc3)ccc2n1C	30	–	–
Cc1[nH]c2ccccc2c1C(C[N+](=O)[O-])c1cccc(O)c1 (configuration not stated)	-21.2	–	29.1 µM [falling, single point]
COc1ccc(CN2CCC(CNS(=O)(=O)c3cccc(C(F)(F)F)c3)CC2)cc1	24.2	–	–
Cc1ccc(S(=O)(=O)N2CCN=C2SCc2ccc(Cl)c(Cl)c2)cc1	15.1	–	5.17 µM [rising, full curve, poor fit]
COc1ccc(S(=O)(=O)N2CCCN(CCC(=O)Nc3cccc(C(F)(F)F)c3)CC2)cc1	3.74	–	–
Fc1ccc(F)c(C2=NNC(=NCC3CCCO3)SC2)c1 (configuration not stated)	–	0.0058 µM [rising, full curve]	–
Cc1ccc(C(=O)OCC(=O)NCCN2C(=O)CSC2=O)cc1	75.6	29.1 µM [rising, single point]	23.1 µM [rising, single point]
Cc1ccc(N(Cc2ccccc2)C(=O)c2ccc(S(=O)(=O)N3CCOCC3)cc2)cc1	128	5.8 µM [rising, full curve]	–
CC(C)(C)c1cc(NC(=O)COC(=O)c2ccc3c(=O)n4c(nc3c2)CCC4)n(-c2ccccc2)n1	2.23	–	1.84 µM [falling, partial curve]
Cc1c(OC(C)C(=O)NC(Cc2c[nH]c3ccc(O)cc23)C(=O)O)ccc2c1oc(=O)c1ccccc12 (configuration not stated)	4.21	–	6.51 µM [falling, single point]
CCn1c(SCC(=O)Nc2c(C)n(C)n(-c3ccccc3)c2=O)nc2c1c(=O)n(C)c(=O)n2C	30.3	16.4 µM [rising, partial curve, poor fit]	–
Cc1cc(C)nc(/N=C(/NC(=O)c2ccccc2)Nc2ccccc2)n1	46.8	0.206 µM [rising, full curve]	0.731 µM [rising, full curve]
CCC1(C)Cc2c(C#N)c(N)n(-c3ccccc3)c(=O)c2CO1 (configuration not stated)	-175	23.1 µM [falling, partial curve]	29.1 µM [falling, single point]

Structure (SMILES)	cell number change [%]	AC50 [1]	AC50 [2]
CCOC(=O)N1CCN(C(=O)C2CCCN(S(=O)(=O)c3ccccc3)C2)CC1 (configuration not stated)	38	25.9 µM [rising, single point]	–
Cc1cccc2sc(N3CCN(C(=O)C4COc5ccccc5O4)CC3)nc12 (configuration not stated)	-41.9	29.1 µM [falling, single point]	–
Cc1ccnc(NC(=O)C(C)n2cc([N+](=O)[O-])cn2)c1 (configuration not stated)	9.05	–	–
COC(=O)c1ccc(OC)c(CSc2nnc(-c3ccc(C(C)(C)C)cc3)o2)c1	69.4	18.4 µM [rising, partial curve]	23.1 µM [falling, single point]
Cc1ccc(C(=O)NNC(=O)Cc2ccccc2)cc1	40.5	18.4 µM [rising, partial curve]	23.1 µM [rising, partial curve]
COc1ccc2c(CC(=O)N[C@@H](Cc3c[nH]c4ccccc34)C(=O)O)cc(=O)oc2c1	21.6	–	–
COc1cccc(-c2nc(-c3ccc(NC(=O)Cc4ccccc4OC)cc3)no2)c1	–	2.31 µM [rising, partial curve]	1.84 µM [rising, partial curve]
N#Cc1ccc(NCC(=O)Nc2ccc(S(=O)(=O)N3CCCCC3)cc2)cc1	27	–	0.146 µM [rising, full curve, poor fit]
O=C(/C=C/c1cccc([N+](=O)[O-])c1)Nc1ccc(Cl)cn1	-41	29.1 µM [falling, single point]	29.1 µM [falling, single point]
Cc1ccc(-c2csc(Nc3ccccn3)n2)cc1	–	–	29.1 µM [rising, single point]
COc1ccc(S(=O)(=O)CCC(=O)N2CCN(c3cccc(Cl)c3)CC2)cc1	5.97	–	0.13 µM [falling, full curve, poor fit]
CCOc1ccc(OCCC(=O)N(CC(=O)Nc2ccccc2C(F)(F)F)Cc2ccco2)cc1	–	4.11 µM [rising, single point]	–
O=C(CSc1ncnc2c1oc1ccccc12)Nc1cccc(C(F)(F)F)c1	–	0.82 µM [falling, full curve, poor fit]	0.00517 µM [falling, full curve, poor fit]
Cc1ccc2nc(-c3ccc(NC(=O)c4ccco4)cc3)[nH]c2c1	–	0.231 µM [rising, partial curve, poor fit]	–
COCCNC(=O)c1ccc2c(=O)n(Cc3ccco3)c(SCC(=O)Nc3ccc(OC)cc3OC)nc2c1	–	–	0.58 µM [rising, single point]
Cc1cc(OCc2nc3ccccc3s2)ccc1N	26.5	1.64 µM [rising, full curve, poor fit]	–
CCN(Cc1nc2ccccc2c(=O)[nH]1)C(=O)c1cc(C2CC2)nn1-c1ccccc1	1.13	–	3.66 µM [falling, full curve]
Cc1cc(C)cc(NC(=O)CCc2ccc(C)o2)c1	–	–	29.1 µM [rising, single point]
CC(C)CC(=O)Nc1ccc(-c2cn3ccsc3n2)cc1	4.61	–	29.1 µM [rising, single point]

Entries of single compounds, looked up by structure.
O=C(CSc1ncnc2c1oc1ccccc12)Nc1cccc(C(F)(F)F)c1 in the list: AC50 [1]: 0.82 µM [falling, full curve, poor fit]; AC50 [2]: 0.00517 µM [falling, full curve, poor fit]
Cc1ccc(C(=O)OCC(=O)NCCN2C(=O)CSC2=O)cc1 in the list: cell number change [%]: 75.6; AC50 [1]: 29.1 µM [rising, single point]; AC50 [2]: 23.1 µM [rising, single point]
COc1ccc(CN2CCC(CNS(=O)(=O)c3cccc(C(F)(F)F)c3)CC2)cc1 in the list: cell number change [%]: 24.2
